No constants are given. Whether binding was seen depends on the method and setting. In cells and extracts the contact can be indirect. Here binding means that the protein was enriched with, or labelled near, the bait; the list need not be complete. No binding means not detected with the bait.
Target: T1, EML3 TQT86AAA, endogenous in homozygous Eml3^TQT86AAA mice (mouse (endogenous in placenta)) (UniProt Q8VC03)
T1 sequence: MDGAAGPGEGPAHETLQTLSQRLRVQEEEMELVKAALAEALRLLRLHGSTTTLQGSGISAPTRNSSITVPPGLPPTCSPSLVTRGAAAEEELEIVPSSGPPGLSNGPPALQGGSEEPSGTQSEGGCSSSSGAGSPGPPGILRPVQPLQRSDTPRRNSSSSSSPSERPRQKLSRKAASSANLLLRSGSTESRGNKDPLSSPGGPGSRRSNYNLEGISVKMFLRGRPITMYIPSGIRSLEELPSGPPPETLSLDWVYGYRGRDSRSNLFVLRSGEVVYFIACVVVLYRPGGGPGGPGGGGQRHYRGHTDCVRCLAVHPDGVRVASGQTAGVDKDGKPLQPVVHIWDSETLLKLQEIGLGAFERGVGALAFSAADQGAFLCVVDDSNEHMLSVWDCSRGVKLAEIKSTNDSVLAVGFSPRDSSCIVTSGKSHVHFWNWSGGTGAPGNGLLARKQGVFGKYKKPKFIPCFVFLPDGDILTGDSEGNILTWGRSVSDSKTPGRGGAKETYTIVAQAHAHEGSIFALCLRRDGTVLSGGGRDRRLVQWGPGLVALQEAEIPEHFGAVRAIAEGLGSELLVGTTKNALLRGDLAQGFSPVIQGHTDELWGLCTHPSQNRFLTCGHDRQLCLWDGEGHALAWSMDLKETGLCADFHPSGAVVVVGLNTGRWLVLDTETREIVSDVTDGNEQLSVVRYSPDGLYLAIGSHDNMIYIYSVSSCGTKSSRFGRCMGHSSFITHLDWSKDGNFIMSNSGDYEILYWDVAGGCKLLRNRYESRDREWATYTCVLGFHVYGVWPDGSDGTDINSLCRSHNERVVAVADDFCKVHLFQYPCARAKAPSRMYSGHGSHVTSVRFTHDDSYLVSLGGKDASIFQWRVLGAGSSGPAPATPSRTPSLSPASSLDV
Test: affinity purification with mass spectrometry

Amino acid sequences for entries named in this document (tags omitted).
UniProt P63168: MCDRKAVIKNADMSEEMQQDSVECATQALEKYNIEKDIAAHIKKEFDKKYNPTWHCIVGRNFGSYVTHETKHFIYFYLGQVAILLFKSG

Substance: cytoplasmic dynein light chain DYNLL1, endogenous (from UniProt P63168 1-89)
- binding: no binding
